Results reported in the supplement of paper PMC6078165.
± gives the standard deviation of the averaged measurements. The reference is the same well before dosing, and untreated signal decays as well.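 Fibroblast labels denote human fibroblasts, mainly primary ones from uterus (C12385, HUF), lung (H6013), bone (Hs27A), adrenal (HADF) and skin (WS1), plus mammary HMF and breast cancer-associated Hs343T. Cancer cells are basal-like or mesenchymal-like triple-negative breast cancer lines. A hit is a response shift exceeding 3x replicate standard deviation. The tissue of the other fibroblasts is not given here.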

System: MDAMB231
Experiment: relative JC-1 red fluorescence (viability) vs pre-drug, coculture with fibroblast (fraction); higher = more viable cancer cells
Conditions: 10 µM
Experimental: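 JC-1 labelled TNBC cells cocultured 1:1 (1,500 cells each) with CellTrace Violet stained primary or stromal fibroblasts in 384-well plates in FluoroBrite medium, treated with one of 42 anticancer drugs at 0.1, 1, 10 or 100 uM. JC-1 red fluorescence (mitochondrial integrity in cancer cells only) was read by plate reader every 8 h for 72 h. Values are normalised to each well's pre-drug value. The stock of one drug was tenfold lower, so its dose labels may be too high.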

CC(=O)c1c(C)c2cnc(Nc3ccc(N4CCNCC4)cn3)nc2n(C2CCCC2)c1=O [Palbociclib]
relative JC-1 red fluorescence
Conditions | 40 h | 48 h | 56 h | 64 h | 72 h
coculture fibroblast: C12385 | – | 0.807 ± 0.11 | 0.776 ± 0.11 | 0.78 ± 0.1 | 0.758 ± 0.098
coculture fibroblast: H6013 | – | 0.942 ± 0.065 | 0.823 ± 0.14 | 0.858 ± 0.055 | 0.832 ± 0.046
coculture fibroblast: H6019 | – | 0.814 ± 0.17 | 0.788 ± 0.17 | 0.781 ± 0.2 | 0.759 ± 0.18
coculture fibroblast: H6076 | – | 0.921 ± 0.03 | 0.911 ± 0.039 | 0.895 ± 0.05 | 0.891 ± 0.058
coculture fibroblast: H6231 | – | 0.9 ± 0.021 | 0.879 ± 0.011 | 0.851 ± 0.028 | 0.828 ± 0.028
coculture fibroblast: HADF | – | 0.94 ± 0.037 | 0.916 ± 0.044 | 0.921 ± 0.023 | 0.917 ± 0.074
coculture fibroblast: HCFa | – | 0.866 ± 0.026 | 0.867 ± 0.041 | 0.847 ± 0.043 | 0.834 ± 0.034
coculture fibroblast: HCPF | – | 0.875 ± 0.034 | 0.8458 ± 0.0023 | 0.82 ± 0.022 | 0.817 ± 0.021
coculture fibroblast: HHSteC | 0.957 ± 0.028 | 0.936 ± 0.022 | 0.926 ± 0.024 | 0.922 ± 0.017 | 0.914 ± 0.011
coculture fibroblast: HMF | 0.862 ± 0.062 | 0.716 ± 0.032 | 0.9885 ± 0.0049 | 0.931 ± 0.054 | 0.896 ± 0.076
coculture fibroblast: HPFa | 0.972 ± 0.023 | 0.933 ± 0.024 | 0.926 ± 0.026 | 0.907 ± 0.03 | 0.881 ± 0.042
coculture fibroblast: HUF | 0.843 ± 0.025 | 0.836 ± 0.023 | 0.804 ± 0.018 | 0.8 ± 0.016 | 0.792 ± 0.016
coculture fibroblast: Hs5 | 0.91 ± 0.064 | 0.871 ± 0.065 | 0.851 ± 0.043 | 0.828 ± 0.048 | 0.818 ± 0.055
coculture fibroblast: Hs27A | 0.868 ± 0.024 | 0.829 ± 0.077 | 0.909 ± 0.1 | 0.899 ± 0.1 | 0.856 ± 0.1
coculture fibroblast: Hs343T | 0.9256 ± 0.0031 | 0.842 ± 0.079 | 0.852 ± 0.18 | 0.942 ± 0.039 | 0.847 ± 0.14
coculture fibroblast: WS1 | 0.806 ± 0.038 | 0.794 ± 0.049 | 0.778 ± 0.058 | 0.788 ± 0.051 | 0.759 ± 0.055
